# Literature values, collected in patent US10435371B2, “Multifunctional aminoquinoline therapeutic agent” (LOHOCLA RESEARCH CORPORATION, priority 2014, dated 2019).
# Target: GABA site, GABA-A Receptor
# Details: PDSP historical reference value, [^3H]Muscimol; read-out: Reference Ki, GABAA (rat brain); cited from earlier work
structure (smiles),measurement,value
NCCCC(=O)O [GABA],Ki,241 ± 26 nM
